From article PMC7515921, “MFSD7C switches mitochondrial ATP synthesis to thermogenesis in response to heme” (Nature Communications, 2020)

T1: MFSD7C tagged with both Myc and FLAG epitopes (murine) (mouse) (UniProt Q91X85)
T1 sequence: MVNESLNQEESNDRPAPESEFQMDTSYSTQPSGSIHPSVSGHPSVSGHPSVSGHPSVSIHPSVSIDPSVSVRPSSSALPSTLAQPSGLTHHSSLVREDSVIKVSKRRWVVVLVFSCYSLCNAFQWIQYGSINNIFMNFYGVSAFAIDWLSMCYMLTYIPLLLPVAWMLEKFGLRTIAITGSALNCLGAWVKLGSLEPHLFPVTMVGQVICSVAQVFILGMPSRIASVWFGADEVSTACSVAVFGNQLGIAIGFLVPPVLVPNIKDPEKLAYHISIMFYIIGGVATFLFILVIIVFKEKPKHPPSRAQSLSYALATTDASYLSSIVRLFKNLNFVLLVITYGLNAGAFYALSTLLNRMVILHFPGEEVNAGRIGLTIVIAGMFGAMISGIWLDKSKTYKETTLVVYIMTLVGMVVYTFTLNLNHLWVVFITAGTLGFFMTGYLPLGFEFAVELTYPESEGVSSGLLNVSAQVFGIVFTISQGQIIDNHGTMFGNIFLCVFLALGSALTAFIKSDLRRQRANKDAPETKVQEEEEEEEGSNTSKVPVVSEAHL


target: T1, MFSD7C tagged with both Myc and FLAG epitopes (murine) (mouse); assay: affinity purification with mass spectrometry; lysate of MH-S cells expressing MFSD7C-FLAG-Myc (control: GFP alone); 20 mM Tris-HCl pH 7.4, 150 mM NaCl, 0.1% NP-40, 10% glycerol; anti-FLAG beads, 3x FLAG peptide elution, then anti-Myc beads; LC-MS/MS

| binding | Binder |
| --- | --- |
| binds | Tm9sf3 (protein, UniProt Q9ET30 27-587) DEHEHTYQDKEEVVLWMNTVGPYHNRQETYKYFSLPFCVGSKKSISHYHETLGEALQGVELEFSGLDIKFKDDVMPGTYCEIDLDKEKRDAFVYAIKNHYWYQMYIDDLPIWGIVGEADENGEDYYLWTYKKLEIGFNGNRIVDVNLTSEGKVKLVPNTKIQMSYSVKWKKSDVKFEDRFDKYLDPSFFQHRIHWFSIFNSFMMVIFLVGLVSMILMRTLRKDYARYSKEEEMDDMDRDLGDEYGWKQVHGDVFRPSSHPLIFSSLIGSGCQIFAVSLIVIIVAMIEDLYTERGSMLSTAIFVYAATSPVNGYFGGSLYARQGGRRWIKQMFIGAFLIPAMVCGTAFFINFIAIYYHASRAIPFGTMVAVCCICFFVILPLNLVGTILGRNLSGQPNFPCRVNAVPRPIPEKKWFMEPAVIVCLGGILPFGSIFIEMYFIFTSFWAYKIYYVYGFMMLVLVILCIVTVCVTIVCTYFLLNAEDYRWQWTSFLSAASTAIYVYMYSFYYYFFKTKMYGLFQTSFYFGYMAVFSTALGIMCGAIGYMGTSAFVRKIYTNVKID |
| binds | Oas1a (protein, UniProt P11928 1-367) MEHGLRSIPAWTLDKFIEDYLLPDTTFGADVKSAVNVVCDFLKERCFQGAAHPVRVSKVVKGGSSGKGTTLKGKSDADLVVFLNNLTSFEDQLNRRGEFIKEIKKQLYEVQHERRFRVKFEVQSSWWPNARSLSFKLSAPHLHQEVEFDVLPAFDVLGHVNTSSKPDPRIYAILIEECTSLGKDGEFSTCFTELQRNFLKQRPTKLKSLIRLVKHWYQLCKEKLGKPLPPQYALELLTVFAWEQGNGCYEFNTAQGFRTVLELVINYQHLRIYWTKYYDFQHQEVSKYLHRQLRKARPVILDPADPTGNVAGGNPEGWRRLAEEADVWLWYPCFIKKDGSRVSSWDVPTVVPVPFEQVEENWTCILL |
| binds | Cap1 (protein, UniProt P40124 1-474) MADMQNLVERLERAVGRLEAVSHTSDMHCGYGDSPSKGAVPYVQAFDSLLANPVAEYLKMSKEIGGDVQKHAEMVHTGLKLERALLATASQCQQPAGNKLSDLLAPISEQIQEVITFREKNRGSKFFNHLSAVSESIQALGWVALAAKPGPFVKEMNDAAMFYTNRVLKEYRDVDKKHVDWVRAYLSIWTELQAYIKEFHTTGLAWSKTGPVAKELSGLPSGPSVGSGPPPPPPGPPPPPISTSSGSDDSASRSALFAQINQGESITHALKHVSDDMKTHKNPALKAQSGPVRSGPKPFSAPKPQTSPSPKPATKKEPALLELEGKKWRVENQENVSNLVIDDTELKQVAYIYKCVNTTLQIKGKINSITVDNCKKLGLVFDDVVGIVEIINSRDVKVQVMGKVPTISINKTDGCHAYLSKNSLDCEIVSAKSSEMNVLIPTEGGDFNEFPVPEQFKTLWNGQKLVTTVTEIAG |
| binds | Atxn10 (protein, UniProt P28658 1-475) MAAPRMPPSRLSGIMVPAPIQDLEALRALTALFKEQRNRETAPRTIFQRVLDILKKSTHAVELACRDPSQVEHLASSLQLITECFRCLRNACIECSVNQNSIRNLDTIGVAVDLVLLFRELRVEQDSLLTAFRCGLQFLGNVASRNEESQSIVWVHAFPELFMSCLNHPDKKIVAYCSMILFTSLNAERMKDLEENLNIAINVIEAHQKHPASEWPFLIISDHFLKSPELVEAMYGKLSNQERITLLDIVIAKLVGEEQLTKDDISIFVRHAELIANSFMDQCRNVLKLTSEPHTEDKEALVTIRLLDVLCEMTSNTELLGYLQVFPGLMERVIDVLRVIHEVGKESTNIFSPSDSLKAEGDIEHMTEGFKSHLIRLIGNLCYKNKENQDKVNELDGIPLILDSSNIDDNNPFMMQWVVYAVRNLTEDNSQNQDVIAKMEEQGLADASLLKKMGFEIEKSGDKLILKSNNDIPPP |
| binds | Slc16a1 (protein, UniProt P53986 1-493) MPPAIGGPVGYTPPDGGWGWAVLVGAFISIGFSYAFPKSITVFFKEIEVIFSATTSEVSWISSIMLAVMYAGGPISSILVNKYGSRPVMIAGGCLSGCGLIAASFCNTVQELYLCIGVIGGLGLAFNLNPALTMIGKYFYKKRPLANGLAMAGSPVFLSTLAPLNQAFFDIFDWRGSFLILGGLLLNCCVAGSLMRPIGPEQVKLEKLKSKESLQEAGKSDANTDLIGGSPKGEKLSVFQTINKFLDLSLFTHRGFLLYLSGNVVMFFGLFTPLVFLSSYGKSKDFSSEKSAFLLSILAFVDMVARPSMGLAANTKWIRPRIQYFFAASVVANGVCHLLAPLSTTYVGFCVYAGVFGFAFGWLSSVLFETLMDLIGPQRFSSAVGLVTIVECCPVLLGPPLLGRLNDMYGDYKYTYWACGVILIIAGIYLFIGMGINYRLLAKEQKAEEKQKREGKEDEASTDVDEKPKETMKAAQSPQQHSSGDPTEEESPV |
| binds | STT3B (protein, UniProt Q3TDQ1 1-823) MAEPSAPESKHKSSLNSSPWSGLMALGNSRHGHHGPGTQSASSAAAPKPGPPAGLSGGLSQPAGWQSLLSFTILFLAWLAGFSSRLFAVIRFESIIHEFDPWFNYRSTHHLASHGFYEFLNWFDERAWYPLGRIVGGTVYPGLMITAGLIHWILNTLNITVHIRDVCVFLAPTFSGLTSISTFLLTRELWNQGAGLLAACFIAIVPGYISRSVAGSFDNEGIAIFALQFTYYLWVKSVKTGSVFWTMCCCLSYFYMVSAWGGYVFIINLIPLHVFVLLLMQRYSKRVYIAYSTFYIVGLILSMQIPFVGFQPIRTSEHMAAAGVFALLQAYAFLQYLRDRLTKQEFQTLFFLGVSLAAGAVFLSVIYLTYTGYIAPWSGRFYSLWDTGYAKIHIPIIASVSEHQPTTWVSFFFDLHILVCTFPAGLWFCIKNINDERVFVALYAISAVYFAGVMVRLMLTLTPVVCMLSAIAFSNVFEHYLGDDMKRENPPVEDSSDEDDKRNPGNLYDKAGKVRKHVTEQEKPEEGLGPNIKSIVTMLMLMLLMMFAVHCTWVTSNAYSSPSVVLASYNHDGTRNILDDFREAYFWLRQNTDEHARVMSWWDYGYQIAGMANRTTLVDNNTWNNSHIALVGKAMSSNETAAYKIMRSLDVDYVLVIFGGVIGYSGDDINKFLWMVRIAEGEHPKDIREGDYFTQQGEFRVDKAGSPTLLNCLMYKMSYYRFGEMQLDFRTPPGFDRTRNAEIGNKDIKFKHLEEAFTSEHWLVRIYKVKAPDNRETLGHKPRVTNIVPKQKYLSKKTTKRKRGYVKNKLVFKKGKKTSKKTV |
| binds | G3bp2 (protein, UniProt P97379 1-482) MVMEKPSPLLVGREFVRQYYTLLNKAPEYLHRFYGRNSSYVHGGVDASGKPQEAVYGQNDIHHKVLSLNFSECHTKIRHVDAHATLSDGVVVQVMGLLSNSGQPERKFMQTFVLAPEGSVPNKFYVHNDMFRYEDEVFGDSEPELDEESEDEVEEEQEDRQPSPEPVQENANSAYYDAHPVTNGIEEPLEESSHEPEPEPESETKTEELKPQVEEKHLEELEEKSATPPPAEPASLPQEPPKAFSWASVTSKNLPPSGTVSSSGIPPHVKAPVSQPRVDAKPEVQSQPPRVREQRPRERPGFPPRGPRPGRGDMEQNDSDNRRIIRYPDSHQLFVGNLPHDIDENELKEFFMSFGNVVELRINTKGVGGKLPNFGFVVFDDSEPVQRILIAKPIMFRGEVRLNVEEKKTRAARERETRGGGDDRRDIRRNDRGPGGPRGIVGGGMMRDRDGRGPPPRGGMTQKLGSGRGTGQMEGRFTGQRR |
| binds | Lpxn (protein, UniProt Q99N69 1-386) MEELDALLEELERCTFQDSEEYSNPVSCHLDQQSTEESKIPQTPKTLSSQGNTSPLKVQLVYATNIQEPNVYSEVQEPKESVLPPKTSAAAQLDELMAHLSEMQAKVSVKADTSRKPLPDQQDHKASLDSMLGDLEQELQDLGIATVPKGYCASCQKPIAGKVIHALGQSWHPEHFVCTHCKEELGSSPFFERSGLAYCSKDYHRLFSPRCAYCAAPITDKVLTAMNKTWHPEHFFCSHCGEVFGAEGFHEKDKKPYCRKDFLAMFSPKCGGCNRPVLENYLSAMNTVWHPECFVCGDCFSSFSSGSFFELDGRPFCELHYHHRRGTLCHDCGQPITGRCISAMGHKFHPEHFVCAFCLTQLPKGIFKEQNNKTYCEKCFTKLFSQ |
| binds | Slc25a11 (protein, UniProt Q9CR62 1-314) MAATASPGAGRMDGKPRTSPKSVKFLFGGLAGMGATVFVQPLDLVKNRMQLSGEGAKTREYKTSFHALTSILKTEGLKGIYTGLSAGLLRQATYTTTRLGIYTVLFERLTGADGTPPGFLLKALIGMTAGATGAFVGTPAEVALIRMTADGRLPADQRRGYKNVFNALVRIAREEGVPTLWRGCIPTMARAVVVNAAQLASYSQSKQFLLDSGYFSDNILCHFCASMISGLVTTAASMPVDIVKTRIQNMRMIDGKPEYKNGLDVLLKVVRYEGFFSLWKGFTPYYARLGPHTVLTFIFLEQMNKAYKRLFLSG |
| binds | Mlec (protein, UniProt Q6ZQI3 31-291) PGLGVVGAAGAGLPESVIWAVNAGGEAHVDVHGIHFRKDPLEGRVGRASDYGMKLPILRSTPEDQILYQTERYNEETFGYEVPVKEEGDYVLVLKFAEVYFAQSQQKVFDVRLNGHVVVKDLDIFDRVGHSTAHDEIIPMSIRKGKLSVRGEVSTFTGKLYIEFVKGYYDNPKVCALYILAGTVDDVPKLQPHPGLEKKEEEEEEEEYDEGSNLKRQTNKNRVQSGPRTPNPYASDNSSLMFPILVAFGVFIPTLFCLCRL |

Results are given in words; binding and its absence hold for the method and conditions named. Binding seen in cells or lysates may run through a third protein. Here binding means that the protein was enriched with, or labelled near, the bait; the list need not be complete. Sequences can lack the tags named with a protein.
